# The full ranking holds about 33,000 sequences; the median of “E-score (-0.5 to 0.5)” is about -0.0014, and the highest 2% start at about 0.25. The list shows a part of the results.
# Target: T1, Cad1 (UniProt P24813)
# T1 sequence: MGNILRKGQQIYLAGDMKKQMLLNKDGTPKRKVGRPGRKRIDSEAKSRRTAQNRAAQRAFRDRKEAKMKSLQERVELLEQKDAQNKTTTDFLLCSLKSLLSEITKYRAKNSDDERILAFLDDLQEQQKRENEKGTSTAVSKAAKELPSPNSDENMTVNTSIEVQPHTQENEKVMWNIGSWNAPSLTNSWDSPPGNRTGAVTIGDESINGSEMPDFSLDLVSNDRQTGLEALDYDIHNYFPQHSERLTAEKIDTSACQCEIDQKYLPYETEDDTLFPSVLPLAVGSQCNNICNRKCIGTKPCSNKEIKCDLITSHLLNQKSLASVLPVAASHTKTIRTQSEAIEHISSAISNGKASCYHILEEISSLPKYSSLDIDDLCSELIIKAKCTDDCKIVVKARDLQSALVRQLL
# Test: PBM E-score (8-mer binding enrichment) (E-score (-0.5 to 0.5)); higher = stronger / more preferred TF binding
# Settings: protein concentration: 100 nM; construct: GST-full length
# Method in brief: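 The E-score, a modified Wilcoxon-Mann-Whitney statistic, was computed by the Universal PBM Analysis Suite for every ungapped eight-base word pooled with its reverse complement. Scans behind it were normalised with masliner after bound GST-tagged yeast transcription factors were detected with fluorescent anti-GST. The proteins, at about 100-200 nM, had been applied to universal all-10-mer Agilent arrays made double-stranded by primer extension.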
row,Sequence,PBM E-score
1,ATGATTAC,0.192
2,GAGGAATC,-0.0897
3,AATAACCA,0.0929
4,AATACAAC,0.127
5,CTTACCAC,-0.088
6,TAGATATA,0.137
7,ACATTCAG,-0.115
8,AGCCAGTA,-0.0119
9,AAATAAAA,-0.0112
10,AAACGAGT,0.106
11,AACGATGC,-0.0697
12,CTCAATGC,-0.134
13,AGTTTCAA,-0.00143
14,ATGTTGAA,0.0648
15,CCGTGCCC,-0.127
16,AGCTCCTC,-0.164
17,TCCACGAA,0.176
18,GACATTAA,0.124
19,CATGAGGA,-0.0479
20,CCCCACGA,-0.14
21,CGTGAAAC,0.0381
22,ACAATGAT,0.0901
23,GTGAGGAA,-0.0445
24,ACGCAAAT,0.00101
25,CGACTTGC,-0.0213

# Not a retest: an excerpt of the list.
row,Sequence,PBM E-score
3,AATAACCA,0.0929
4,AATACAAC,0.127
5,CTTACCAC,-0.088
6,TAGATATA,0.137
7,ACATTCAG,-0.115

# Additional entries follow.

row,Sequence,PBM E-score
1,TACAGCTA,-0.152
2,CTTCCGGA,0.0325
3,GTTCAATA,0.148
4,AAGATCCA,-0.089
5,CTTTCTTA,0.0123
6,TATCCCCA,-0.00848
7,GAATAGTC,0.104
8,AGTACGCG,0.26
9,GACTCGGC,-0.123
10,GCGTAATA,0.142
11,GCTATACA,0.181
12,ACCATAGT,0.043
13,GTGTCTTA,-0.112
14,ATGGGAAA,-0.172
15,CACTCCAA,0.0548
16,CAAAAGTC,0.0412
17,ATAGCTCC,-0.234
18,GTAAACAA,0.186
19,CGCCATCC,-0.144
20,AAAGAAAA,0.149
21,CGTCTCAA,0.0271
22,GTAATAGA,0.12
23,ATTCTAAC,-0.0187
24,GCTTACGA,0.258
25,ACTACGCC,-0.0775

# 7 entries from above, bar-delimited:
row | Sequence | PBM E-score
12 | ACCATAGT | 0.043
13 | GTGTCTTA | -0.112
14 | ATGGGAAA | -0.172
15 | CACTCCAA | 0.0548
16 | CAAAAGTC | 0.0412
17 | ATAGCTCC | -0.234
18 | GTAAACAA | 0.186

# Next part

row,Sequence,PBM E-score
1,CAATAGCA,-0.111
2,ATAACATC,0.16
3,AATTTACA,0.0636
4,AGTATACG,0.0264
5,CCCCTTAC,-0.128
6,TGCGCCAA,0.0579
7,CGGGGTCA,-0.12
8,CCTGGGAC,-0.266
9,TGGCGCCA,0.198
10,ACTGGGTC,-0.332
11,GGAAAGAA,-0.177
12,ATGGTATA,0.112
13,CCCTCCCA,0.00647
14,AACAAGTA,-0.135
15,AACCTCTG,-0.105
16,ATCAAACC,0.18
17,GCATAGCC,-0.256
18,AGACTACC,-0.0789
19,AAGCGGTC,0.0402
20,ATCCAGTC,-0.0389
21,GCGGTACA,-0.026
22,ACGTTCAG,-0.172
23,AGCACACT,-0.0625
24,AACGAGTA,0.0634
25,CGTGGATA,0.0699

row,Sequence,PBM E-score
1,ATCAGATC,-0.12
2,CAATTGTA,0.202
3,GATGGTAC,0.0265
4,ACAACCCC,-0.155
5,AGGGACTG,-0.0624
6,ATACGCGG,-0.0649
7,ATAGCCCG,-0.245
8,ACGATTAG,0.225
9,GTGTTTAA,0.233
10,GCAAAAGA,-0.0108
11,CTGTTGCC,-0.123
12,GACTTTTA,-0.17
13,ATAGACCG,-0.0498
14,CTAACGAA,0.153
15,GGGTGAAC,-0.0927
16,CTGTTCGA,-0.08
17,AAGTGATT,0.166
18,ATTCCTCC,-0.145
19,CTGCCGTC,-0.121
20,GAAATCCA,0.164
21,GGTTAATA,0.119
22,CAGCTGGG,-0.113
23,CTTCGCTC,0.0256
24,CTCCGCAC,0.0372
25,GCCCTCAC,-0.163

row,Sequence,PBM E-score
1,TAATCAGA,0.233
2,CATTTCAC,-0.0255
3,CATCTGCC,-0.0636
4,CGCTCTCC,-0.172
5,ACATGAAT,-0.0876
6,CCTGGGGC,-0.343
7,AACTGCTC,0.0289
8,AGATTCCC,0.0124
9,ACGATGGG,-0.16
10,CTATAACA,-0.121
11,CCCCTCCA,-0.106
12,AGGCTTAT,0.00167
13,ATAACGGA,0.155
14,ATAGCCTA,-0.029
15,GTCTTAGA,-0.0522
16,CGTGCAAC,0.0988
17,AATACAGG,0.207
18,GCTGCTAA,0.0581
19,GGGTTACC,-0.237
20,AACAGATC,0.16
21,GTTGGCTA,-0.0101
22,ACGCGCCC,0.0144
23,CCATTATC,0.0253
24,CCAGTCCG,-0.184
25,AAAGGGGG,-0.344

row,Sequence,PBM E-score
1,TTGACAAA,0.294
2,ACCTGATA,0.147
3,CCCGTTCA,-0.183
4,CCAACAGG,-0.268
5,CTATATAC,0.27
6,ACGATCCC,-0.208
7,CCAAGCGG,-0.224
8,GGTACTAA,0.0433
9,ACAATCGT,0.00707
10,GTGGCTAA,0.146
11,ACACGAGT,0.149
12,AGAGCAAG,0.13
13,CGGAATTA,0.203
14,GCGGTATA,0.104
15,CGTCCATA,0.112
16,GGCCACCA,0.0862
17,AGATCACA,-0.0498
18,AAGGCTAT,-0.152
19,AGGCAGAA,-0.106
20,CATGTGGC,0.105
21,CCCGAAAG,-0.0143
22,ATTGCAAG,-0.00256
23,GGCGCGCC,0.172
24,ACTACAAT,0.173
25,AGAGATCC,-0.104

row,Sequence,PBM E-score
1,CTAGCCGC,0.0492
2,CCACTTAC,0.0959
3,AATCAAAC,0.215
4,CCCCCCGG,-0.428
5,GGTTCATA,0.0159
6,ATAACACG,-0.0288
7,ATTTCCCA,0.156
8,AGGCATCC,-0.195
9,GGAAGTTA,0.0734
10,CGATCTAC,-0.0444
11,GTTGCTAA,0.223
12,CTGTGAAG,-0.0744
13,CGAACAGC,-0.0486
14,CCTGTTAC,-0.139
15,CCCTGTGA,-0.161
16,GAATGCAA,0.0943
17,ACCGGTAC,-0.166
18,AGACCAAG,-0.0534
19,AGATAGGG,-0.206
20,CGATAAGC,0.055
21,TGGAGGAA,-0.222
22,AAAAGTCC,0.0399

# From the supplement of paper PMC3334620
